This passage reports binding results from US20260167712A1, “INHIBITORY ANTIBODIES AGAINST GLUT1” (ICOSAGEN CELL FACTORY OÜ, priority 2022, published 2026).

Amino acid sequences for entries named in this document (tags omitted).
UniProt P11166: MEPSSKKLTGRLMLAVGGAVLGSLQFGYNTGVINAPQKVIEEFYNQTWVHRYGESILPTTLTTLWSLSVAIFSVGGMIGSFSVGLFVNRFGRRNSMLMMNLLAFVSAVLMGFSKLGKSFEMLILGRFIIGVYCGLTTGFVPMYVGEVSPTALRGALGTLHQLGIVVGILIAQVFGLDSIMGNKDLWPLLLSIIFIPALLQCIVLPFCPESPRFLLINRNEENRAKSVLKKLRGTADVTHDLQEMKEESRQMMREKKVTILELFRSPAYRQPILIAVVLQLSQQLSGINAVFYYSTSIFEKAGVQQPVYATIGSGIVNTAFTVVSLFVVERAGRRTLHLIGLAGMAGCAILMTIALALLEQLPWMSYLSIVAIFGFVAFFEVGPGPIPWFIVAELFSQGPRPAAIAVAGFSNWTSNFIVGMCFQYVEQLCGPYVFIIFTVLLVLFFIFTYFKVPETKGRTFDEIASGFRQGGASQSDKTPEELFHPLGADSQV

These are yes or no findings as the source states them, for the method shown. Some results given as binding are weak or reduced against the parent protein; the word gives no strength.

For test [1], the target named is SLC2A1 pseudotyped VLPs (UniProt P11166). Briefly: ELISA on coated SLC2A1 pseudotyped VLPs. Background: An ELISA detects its analyte on a solid surface through an enzyme-linked reagent.
Test [2] shares this target. The test can be described thus: ELISA on coated SLC2A1 pseudotyped VLPs (FIG. 1 legend).

B1: 5G5 #30 (antibody, V domains shown)
VH: AVTLDESGGGLQTPGGALSLVCKASGFTFSSHAIFWVRQAPDKGLEFVAAISSSSGSWTAYATVVKGRATISRDNGQSTVRLQLNNLRAEDTGTYYCAKAAGSACCYAGSIDAWGHGTEVIVSS
VL: ALTQPSSVSANPGETVKITCSGGSGSSYYGWYQQKSPGSAPVTVIYYDDKRPSDIPSRFSGSKSGSTATLTITGVQVEDEAVYYCGTGDGSIAIFGAGTTLTVL
With B1, the binding entry with SLC2A1 pseudotyped VLPs [1] and in the test with SLC2A1 pseudotyped VLPs [2] was “binds” in each case.

B2: 6F12 #33 (antibody, V domains shown)
VH: AVTLDESGGGLQTPGGALSLVCKASGFTFSDHAIFWVRQAPDKGLEFVAAISSGTGSWTAYATVVKGRATISRDNGQSTVRLQLNNLRAADTATYYCAKGAGSACCYAGSIDAWGHGTEVIVSS
VL: ALTQPSSVSANPGETVKITCSGGSSSSYYGWYQQKSPGSAPVTLIYYNDKRPSDIPSRFSGSKSGSTATLTITGVQVEDEAVYYCGTGDGSFAIFGAGTTLTVL
On to B2, for which the binding entry in the test with SLC2A1 pseudotyped VLPs [1] and with SLC2A1 pseudotyped VLPs [2] was “binds” in each case.

B3: 1G2 #9 (antibody, V domains shown)
VH: AVTLDESGGGLQTPGGALSLVCKASGFTFSTKGMGWVRQTPGKGLEWVAGISSMRRYTYYAPAVKGRATISRDNGQSTVRLQLSSLRAEDSGTYYCARDATYCSWTTSTCGWSGGTIDAWGHGTEVIVSS
VL: ALTQPSSVSANPGETVKITCSGSSGSYGWYQQKSPGSAPVTVIYWDDERPSGIPSRFSGSASGSTATLTITGVQAEDEAVYFCGSIDSSVGYVGIFGAGTTLTVL
On to B3, for which the binding result in the test with SLC2A1 pseudotyped VLPs [1] and with SLC2A1 pseudotyped VLPs [2] was “binds” throughout.

B4: 2A2 #12 (antibody, V domains shown)
VH: AVTLDESGGGLQTPGGALSLVCKGSGFTFSTKGMMWVRQAPGKGLEWVAGISSMSRYTYYAPAVKGRATISRDNGQSAVRLQLSSLRAEDTGTYYCARDATYCSWTASTCGWSGGTIDAWGHGTEVIVSS
VL: ALTQPSSVSANPGETVKITCSGGYSYYGTYYYSWYQQKSPGSAPVTLIYRNDKRPSDIPSRFSGSGSGSTSTLTITGVQAEDEAVYFCGSYDSSDSGIFGAGTTLTVL
On to B4, for which the binding result with SLC2A1 pseudotyped VLPs [1] and in the test with SLC2A1 pseudotyped VLPs [2] was “binds” in each case.

B5: 7C3 #39 (antibody, V domains shown)
VH: AVTLDESGGGLQTPGGALSLVCKASGFTFSTKGMGWVRQTPGKGLEWVAGISSMRRYTYYAPAVKGRATISRDNGQSTVRLQLSSLRAEDSGTYYCARDATYCSWTTSTCGWSGGTIDAWGHGTEVIVSS
VL: ALTQPSSVSANLGGTVKITCSGGGSSSYYGWYQQKSPGSAPVTVIYGNDRRPSDIPSRFSGSASGSTATLTITGVQAEDEAVYFCGSADSSDSGSGIFGAGTTLTVL
In the case of B5, the binding entry in the test with SLC2A1 pseudotyped VLPs [1] and in the test with SLC2A1 pseudotyped VLPs [2] was “binds” each time.

B6: 2E5 #22 (antibody, V domains shown)
VH: AVTLDESGGGLQTPGGALSLVCKASGFTFSTKGMGWVRQTPGKGLEWVAGISSMRRYTYYAPAVKGRATISRDNGQSTVRLQLSSLRAEDSGTYYCARDATYCSWTTSTCGWSGGTIDAWGHGTEVIVSS
VL: ALTQPSSVSANLGGTVKITCSGGSGNYGWYQQKSPGSVPVTVIYSNDKRPSDIPSRFSGSGSGSTATLTITGVQVEDEAVYFCGSRDSSYVGLFGAGTTLTVL
Regarding B6, the binding result with SLC2A1 pseudotyped VLPs [1] and with SLC2A1 pseudotyped VLPs [2] was “binds” in each case.
